Measured values published in publication doi:10.1101/2023.12.12.569033.
Read-outs that look alike come from different tables or passages of the source. No constants are given. Whether binding was seen depends on the method and setting. In cells and extracts the contact can be indirect. Some binding calls cover weakened binding; strength is not graded here. Tags and fused reporters may be left off the sequences shown. Values belong to the molecule of their own block, whether it stands above or below them.

Sequences of proteins named here, by UniProt entry; tags and fusion partners are left off.
UniProt Q969M3: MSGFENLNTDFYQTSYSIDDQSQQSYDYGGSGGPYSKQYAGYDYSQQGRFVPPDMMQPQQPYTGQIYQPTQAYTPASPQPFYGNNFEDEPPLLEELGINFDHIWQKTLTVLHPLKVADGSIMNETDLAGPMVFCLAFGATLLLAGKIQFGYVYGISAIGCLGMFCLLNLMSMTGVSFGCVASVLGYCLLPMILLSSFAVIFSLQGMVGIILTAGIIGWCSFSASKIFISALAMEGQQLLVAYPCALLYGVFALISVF

Columns and labels:
Test in all cases: co-IP
[1] = molecular target: T1, V5-GOT1A (V5-GOLT1A), transfected in HEK293T cells (human) (UniProt Q6ZVE7)
T1 sequence: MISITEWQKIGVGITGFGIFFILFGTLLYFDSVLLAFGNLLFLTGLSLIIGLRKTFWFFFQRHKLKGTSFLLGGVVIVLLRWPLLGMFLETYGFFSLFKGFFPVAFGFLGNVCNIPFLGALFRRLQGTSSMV

[2] = molecular target: T2, GOT1B-FLAG (GOLT1B-Flag), stably expressed in HEK293T cells (human) (UniProt Q9Y3E0)
T2 sequence: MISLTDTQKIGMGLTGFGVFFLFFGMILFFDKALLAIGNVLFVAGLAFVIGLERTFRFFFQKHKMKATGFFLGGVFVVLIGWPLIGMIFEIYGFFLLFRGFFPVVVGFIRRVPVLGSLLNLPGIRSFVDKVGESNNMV

[3] = molecular target: T3, GOT1B-FLAG (GOLT1B-Flag), stably overexpressed in MCF10A cells (human) (UniProt Q9Y3E0)
T3 sequence: T2 sequence

[4] = molecular target: T4, FLAG-GOT1A (Flag-GOLT1A), stably overexpressed in MCF10A cells (human) (UniProt Q6ZVE7)
T4 sequence: T1 sequence

[5] = molecular target: T1, V5-GOT1A (V5-GOLT1A), transfected in HEK293T cells (human); remark: listed apart in the source
[6] = molecular target: T2, GOT1B-FLAG (GOLT1B-Flag), stably expressed in HEK293T cells (human); remark: listed apart in the source
[7] = molecular target: T3, GOT1B-FLAG (GOLT1B-Flag), stably overexpressed in MCF10A cells (human); remark: listed apart in the source
[8] = molecular target: T4, FLAG-GOT1A (Flag-GOLT1A), stably overexpressed in MCF10A cells (human); remark: listed apart in the source

B1: V5-GOT1A (V5-GOLT1A), transfected in HEK293T cells (protein, UniProt Q6ZVE7 1-132)
chain: T1 sequence
- binding [5]: binds
- binding [6]: binds

B2: YIF1A, endogenous in MCF10A cells (protein, UniProt O95070 1-293)
chain: MAYHSGYGAHGSKHRARAAPDPPPLFDDTSGGYSSQPGGYPATGADVAFSVNHLLGDPMANVAMAYGSSIASHGKDMVHKELHRFVSVSKLKYFFAVDTAYVAKKLGLLVFPYTHQNWEVQYSRDAPLPPRQDLNAPDLYIPTMAFITYVLLAGMALGIQKRFSPEVLGLCASTALVWVVMEVLALLLGLYLATVRSDLSTFHLLAYSGYKYVGMILSVLTGLLFGSDGYYVALAWTSSALMYFIVRSLRTAALGPDSMGGPVPRQRLQLYLTLGAAAFQPLIIYWLTFHLVR
- binding [7]: binds
- binding [8]: binds

B3: GOT1B-FLAG (GOLT1B-Flag), stably expressed in HEK293T cells (protein, UniProt Q9Y3E0 1-138)
chain: T2 sequence
- binding [5]: binds

The remaining lines, values ahead:

- binding [1]: binds
- binding [2]: binds
Molecule: YIPF5, endogenous in HEK293T cells (from UniProt Q969M3 1-257)

- binding [3]: binds
- binding [4]: binds
Molecule: YIPF5, endogenous in MCF10A cells (from UniProt Q969M3 1-257)
